# Reference: PubChem BioAssay (NCATS)
# Chains of the proteins cited; added tags and fusions are not shown.
# UniProt P10635, whole entry, looked up: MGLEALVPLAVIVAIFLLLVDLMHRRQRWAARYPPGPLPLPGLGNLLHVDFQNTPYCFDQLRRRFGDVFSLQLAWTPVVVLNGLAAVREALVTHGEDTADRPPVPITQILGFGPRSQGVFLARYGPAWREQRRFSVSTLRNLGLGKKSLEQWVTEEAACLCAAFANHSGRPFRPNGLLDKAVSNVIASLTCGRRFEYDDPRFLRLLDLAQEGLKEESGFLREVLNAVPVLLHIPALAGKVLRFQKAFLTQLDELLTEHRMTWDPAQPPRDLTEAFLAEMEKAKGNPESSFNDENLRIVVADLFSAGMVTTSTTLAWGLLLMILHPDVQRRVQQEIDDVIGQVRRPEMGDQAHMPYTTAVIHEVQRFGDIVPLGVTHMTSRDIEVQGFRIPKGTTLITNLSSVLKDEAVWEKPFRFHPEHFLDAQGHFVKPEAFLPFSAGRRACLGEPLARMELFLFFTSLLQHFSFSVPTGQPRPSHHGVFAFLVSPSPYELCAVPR
# Inconclusive means that the source gave no clear call. Such entries were picked first, then a sample of the others. Where the call is inconclusive, the potency comes from a doubtful curve fit. Activity calls are given as the source filed them. The call rests on the fitted dose curve; in most records, active means well fitted inhibition curve with a large enough effect; inconclusive means small, poorly fitted or top-dose-only effect; inactive means no such curve, though single readings can be large or run the other way.
# Target: Cytochrome P450 2D6 (Homo sapiens) (UniProt P10635)
# Assay: qHTS for inhibitors of CYP2D6 against the NCATS DSHEA and TCM libraries (AID 1919972)
# Conditions: CYP2D6 enzymatic inhibition, luminescence qHTS; series mostly up to 34.1 µM
# Text: Assay Development and Screening Technology Laboratory (ADST)
# National Center for Advancing Translational Sciences (NCATS), Rockville, MD
# National Institute of Health (NIH), Bethesda, Maryland
# Dietary Supplements and Natural Products have minor oversight of their safety and efficacy. We assembled a collection of Dietary Supplements and Natural Products (DSNP) as well as Traditional Chinese Medicinal (TCM) Plant extracts, which were screened against an in vitro panel of assays, including a liver cytochrome p450 enzyme panel, CAR/PXR signaling pathways, and P-gp transporter assays, to assess their activity. This pipeline facilitated the interrogation of Natural Product-Drug Interaction (NaPDI) through prominent metabolizing pathways. In addition, we compared the activity profiles of the DSNP/TCM substances with those of an approved drug collection. Many of the approved drugs have well-annotated mechanisms of action (MOA) while the MOAs for most of the DSNP and TCM samples remain unknown. Based on the premise that compounds with similar activity profiles tend to share similar targets or MOA, we clustered the library activity profiles to identify overlap with the NCATS Pharmaceutical Collection to predict the MOAs of the DSNP/TCM substances. Overall, we highlight four significant bioactivity profiles (measured by p-values) as examples of this prediction. To assess broad cytotoxicity, we employed screening against a HepG2 cell line. In addition, transporter-mediated drug interactions are utilized in the characterization of DDIs using a P-glycoprotein (P-gp) assays. To profile potential P-gp activity, a differential cell viability was measured against two cell lines: a parental KB-3-1 human cervical adenocarcinoma cell line and the drug-resistant subline KB-8-5-11 that overexpresses P-gp.
# To this end, we profiled both collections for potential CAR and/or PXR activity, employing a previously published 1536-well qHTS assay.
# [1] Lee TD, et al. A High-Throughput Screen of a Library of Therapeutics Identifies Cytotoxic Substrates of P-glycoprotein. Mol Pharmacol. Nov 2019;96(5):629-640. doi:10.1124/mol.119.115964
# PROTOCOL TABLE (as described by Inglese J, Shamu CE and Guy RK. 2007)
# SEQUENCE No. (e.g., 1, 2, 3, etc.); […] (e.g., Cells, Incubation, Reagent, etc.); VALUE; DESCRIPTION.
# 1; Reagent; 2 uL; cytochrome P450 enzyme and luciferin substrate or buffer only, white solid-bottom Greiner plate.
# 2; Compounds and control; 16 nL; Kalypsis pintool (Wako USA) equipped with a 1536-well pin head to transfer to the assay plates.
# 3; Incubation; 15 min; room temperature.
# 4; Reagent; 2 uL; nicotinamide adenine dinucleotide phosphate (NADPH).
# 5; Incubation; 30 - 45 min; room temperature in the dark.
# 6; Reagent; 4 uL; P450-Glo assay detection reagent.
# 7; Centrifuge; 1000 RPM; 15 seconds.
# 8; Incubation; 30 min; room temperature.
# 9; Read; Luminescence; ViewLux plate reader.
# NOTES (numbers refer to Sequence numbers above)
# 1. A 2 uL mixture of corresponding enzymes and luciferin substrate (final concentrations CYP enzyme-specific and pro-luciferin substrate-specific) or minus-enzyme (assay buffer conditions supplied by the manufacturer for respective enzyme isoform; typically, 100 mM KPO4) and luciferin substrate were dispensed using a BioRAPTR FRD (Beckman Coulter, Brea, CA) into columns of a 1536-well white solid-bottom medium binding plate (Greiner Bio-One, Monroe, NC). Five isoforms of cytochrome P450 were used (CYP1A2, CYP2C9, CYP2C19, CYP2D6, and CYP3A4).
# 2. Substances (final concentrations of most substances ranged from 19.5 nM to […] uM) and controls (CYP-specific) were transferred (16 nL) via pintool (Wako Automation, Richmond, VA). Intraplate controls furafylline (CYP1A2), sulfaphenazole (CYP2C9), ketoconazole (CYP2C19), quinidine (CYP2D6), and ketoconazole (CYP3A4) were used correspondingly.
# 3. Assay plates were incubated at room temperature for 15 min.
# 4-5. […]
# Potency means the concentration at half of the fitted maximal effect.
row,SMILES,Potency
1,N#CC(O[C@@H]1O[C@H](CO[C@@H]2O[C@H](CO)[C@@H](O)[C@H](O)[C@H]2O)[C@@H](O)[C@H](O)[C@H]1O)c1ccccc1 (stereo partly specified),"inconclusive: 14.1 µM [inhibitor, partial curve]"
2,COc1ccc2c(c1O)-c1c(OC)c(OC)cc3c1[C@H](C2)N(C)CC3,"inconclusive: 0.158 µM [inhibitor, full curve]"
3,CC[C@@H]1CN2CC[C@]3(C(=O)Nc4ccccc43)[C@@H]2C[C@@H]1/C(=C\OC)C(=O)OC,inactive
4,COc1cc2c(cc1O)C[C@H]1c3c(cc(OC)c(O)c3-2)CCN1C,active: 5.01 µM
5,COc1cc2c(cc1O)CC1NCCc3cc(OC)c(OC)c-2c31 (stereo unspecified),active: 6.31 µM
6,C=C[C@H]1CN2CCc3c([nH]c4ccccc34)[C@H]2C[C@@H]1/C(=C\OC)C(=O)OC,"inconclusive: 7.94 µM [inhibitor, full curve]"
7,COC1=CC(=O)O[C@@H](/C=C/c2ccc3c(c2)OCO3)C1,"inconclusive: 22.4 µM [inhibitor, partial curve, poor fit]"
8,CCCCCCCCCCCCCCCCCC(=O)O,inactive
9,COc1cc2c(cc1O)CC1c3c(cc(O)c(OC)c3-2)CCN1C (stereo unspecified),active: 11.2 µM
10,COC1=C[C@@]23CCN(C)[C@H](Cc4ccc(OC)c(O)c42)C3=CC1=O,"inconclusive: 5.01 µM [inhibitor, full curve]"
11,O=S(=O)(O)O,"inconclusive: 2.82 µM [inhibitor, partial curve]"

# From no. 2 to 3, as listed above:
row,SMILES,Potency
2,COc1ccc2c(c1O)-c1c(OC)c(OC)cc3c1[C@H](C2)N(C)CC3,"inconclusive: 0.158 µM [inhibitor, full curve]"
3,CC[C@@H]1CN2CC[C@]3(C(=O)Nc4ccccc43)[C@@H]2C[C@@H]1/C(=C\OC)C(=O)OC,inactive
